Data from PubChem BioAssay AID2417 (National Center for Advancing Translational Sciences (NCATS), 2010).
Out of some 140,000 compounds screened, about 4,300 (3.1%) were called active. Inconclusive means that the source gave no clear call. Such entries were picked first, then a sample of the others.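 How the source made its calls: active means readout at or below -70, meaning at least 70% loss of cells showing the perinucleolar compartment, a nuclear body marking cancer cells; inconclusive means readout between -30 and a set limit; inactive means the rest.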

Experiment: High Content Assay for Compounds that inhibit the Assembly of the Perinucleolar Compartment;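 further: plate controls were DMSO wells for no effect and camptothecin positive control wells for full effect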
Conditions: PC3M PTB-GFP, PNC prevalence imaging, 16 h; at 10 µM; stronger effect = lower value
Procedure, shortened: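 Compounds are pinned in duplicate onto adhered PC3M cells stably expressing GFP-tagged PTB and incubated 16 h at 37 C. Cells are then fixed, nuclei stained with Hoechst, and PNC-positive cells counted.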
With `CCCCCCC(=O)Nc1nc(C)c(-c2csc(Nc3ccccc3OC)n2)s1` the activity change (PNC), negative = inhibition was inconclusive: -53.3%. For `COc1ccc(C2=NN3C(=O)c4c(ccc(OC)c4OC)C3C2)cc1` (stereo not drawn), the activity change (PNC), negative = inhibition was inactive: 13.3%. In the case of `CCc1ccc(S(=O)(=O)/N=C2/C=C(Sc3ncn[nH]3)C(=O)c3ccccc32)cc1`, the activity change (PNC), negative = inhibition is reported as active: -123%. In the case of `Cc1nc(SCC(=O)NCCc2ccccc2)nc(C)c1C`, the activity change (PNC), negative = inhibition is reported as inconclusive: -40.1%. With `COc1cccc(N2CC(O)=C(c3ccccc3)C2=N)c1` the activity change (PNC), negative = inhibition was inconclusive: -44.5%. In the case of `COc1ccc(NC(=O)c2ccco2)cc1NC(=O)c1ccc(Br)o1`, the activity change (PNC), negative = inhibition is reported as inconclusive: -40.4%. For `CCOC(=O)c1cn2nc(-c3ccc(OCC)cc3)cc2nc1C1CCN(C(=O)OC(C)(C)C)CC1`, the activity change (PNC), negative = inhibition was inconclusive: -53.5%. In the case of `COC(=O)c1ccc(CN2C(=O)c3ccccc3S2(=O)=O)cc1`, the activity change (PNC), negative = inhibition is reported as inactive: 20.6%. In the case of `Cc1ccc(C(C(=O)NC2CCCCC2)N2CCN(C(=O)c3ccco3)CC2)cc1` (stereo not drawn), the activity change (PNC), negative = inhibition is reported as inactive: 69.2%. In the case of `CCC(=O)N1CCN=C1SCc1ccc(F)cc1`, the activity change (PNC), negative = inhibition is reported as inconclusive: -39.8%. In the case of `CCOC(=O)c1nn(-c2ccccc2)c2nc(-c3ccc(OC)cc3)c(C#N)c(=O)n12`, the activity change (PNC), negative = inhibition is reported as inconclusive: -50.3%. In the case of `Nc1ccc(C(=O)n2c3ccccc3c3ccccc32)cc1`, the activity change (PNC), negative = inhibition is reported as inconclusive: -72.5%. With `CCn1c(Cc2c(C)[nH]c3ccccc23)n[nH]c1=S` the activity change (PNC), negative = inhibition was inconclusive: -32.6%. In the case of `Nc1nc(CN2CCc3ccccc3C2)nc(Nc2ccccc2)n1`, the activity change (PNC), negative = inhibition is reported as inconclusive: -56.2%. For `CCOC(=O)c1c(C)nc(C)c(C(=O)OCC)c1-c1ccc(Br)cc1`, the activity change (PNC), negative = inhibition was inactive: 2.68%. For `COc1ccc(S(=O)(=O)Nc2cc3c(C(C)=O)c(C)oc3c3ccccc23)cc1`, the activity change (PNC), negative = inhibition was inconclusive: -51.9%. With `Cc1cccc(CN2CCN(C(=O)CCl)CC2)c1` the activity change (PNC), negative = inhibition was inactive: 33.5%. For `COc1ccc(NC(=O)C2C3CCC(C3)C2C(=O)O)cc1OC` (stereo not drawn), the activity change (PNC), negative = inhibition was inconclusive: -64.3%. In the case of `CCOc1ccccc1N(CC(=O)Nc1ccc2c(c1)OCO2)S(C)(=O)=O`, the activity change (PNC), negative = inhibition is reported as inactive: 8.66%. With `c1ccc(C[n+]2cccc(-c3ccccc3)c2)cc1` the activity change (PNC), negative = inhibition was inconclusive: -44.4%. With `COc1ccc(/C=C/C(=O)NCCc2ccc(S(N)(=O)=O)cc2)cc1` the activity change (PNC), negative = inhibition was inconclusive: -35.1%. For `COc1nc(N)c(S(=O)(=O)c2ccccc2C)cc1C#N`, the activity change (PNC), negative = inhibition was inconclusive: -74.3%. In the case of `O=C(CN1CCN(Cc2ccc3c(c2)OCO3)CC1)N1CCc2[nH]c3ccc(F)cc3c2C1`, the activity change (PNC), negative = inhibition is reported as inconclusive: -50.6%. For `N#CCCNC(=O)Cn1c(COc2ccc(Cl)cc2)nc2ccccc21`, the activity change (PNC), negative = inhibition was inconclusive: -33.6%. For `O=C(Nc1ccc(Cl)c(Cl)c1)c1ccc(Cn2cc(Cl)cn2)cc1`, the activity change (PNC), negative = inhibition was inactive: 6.31%. For `CCOc1cc(/C=N/NC(=O)CSc2nncn2C)ccc1OCc1cccc(C)c1`, the activity change (PNC), negative = inhibition was inconclusive: -50.8%. With `Cc1cc(O)c(C(=O)c2ccccc2C(=O)O)cc1C` the activity change (PNC), negative = inhibition was inactive: 30.8%. In the case of `Cn1nccc1C(=O)Nc1ccn(C23CC4CC(CC(C4)C2)C3)n1`, the activity change (PNC), negative = inhibition is reported as inconclusive: -45.6%. In the case of `Cc1ccc(N=Cc2cc(C)n(C3CCCC3)c2C)cc1`, the activity change (PNC), negative = inhibition is reported as inactive: 53%. In the case of `O=C(CCC1COc2ccccc2O1)NCC1COc2ccccc2O1` (stereo not drawn), the activity change (PNC), negative = inhibition is reported as active: -100%. In the case of `CCCc1nc(S(=O)(=O)Cc2ccc(Cl)cc2Cl)n[nH]1`, the activity change (PNC), negative = inhibition is reported as active: -116%. With `Cc1nnc(NC(=O)C2CCN(c3cnccn3)CC2)s1` the activity change (PNC), negative = inhibition was inactive: -21.6%. With `CCOC(=O)c1ccc(NC(=O)CN(c2ccc(C)cc2)S(=O)(=O)c2c(C)n[nH]c2C)cc1` the activity change (PNC), negative = inhibition was inconclusive: -43.2%. For `CC(C)NC(=O)COC(=O)c1ccc(NS(=O)(=O)c2ccc3c(c2)OCCO3)cc1`, the activity change (PNC), negative = inhibition was inconclusive: -37.1%. In the case of `CCOc1cc(C(=O)NCCCn2ccnc2)cc(OCC)c1OCC`, the activity change (PNC), negative = inhibition is reported as inactive: 83.3%. In the case of `COc1ccc(-c2cc(-c3c(O)c(OC)c4occc4c3OC)[nH]n2)cc1OC`, the activity change (PNC), negative = inhibition is reported as inactive: 49%. For `C/C=C/c1ccc(OCCOc2ccc(C=O)cc2OC)c(OC)c1`, the activity change (PNC), negative = inhibition was active: -108%. With `CCOc1cc(C2c3c(oc4cc(C)c(Cl)cc4c3=O)C(=O)N2Cc2ccco2)ccc1O` (stereo not drawn) the activity change (PNC), negative = inhibition was inconclusive: -50.3%. With `CCCCCn1c(N)c(-c2nc3ccccc3o2)c2c([N+](=O)[O-])nn(C)c(=O)c21` the activity change (PNC), negative = inhibition was inconclusive: -49.4%. With `COc1ccc(-c2nc3ccccc3n2Cc2ccc(C)cc2)cc1` the activity change (PNC), negative = inhibition was active: -82.1%. For `c1ccc(-c2noc(-c3ccco3)n2)nc1`, the activity change (PNC), negative = inhibition was inconclusive: -73.3%. With `COc1cc(OC)cc(C(=O)N(Cc2nc(-c3cccc(C)c3)no2)C(C)C)c1` the activity change (PNC), negative = inhibition was inconclusive: -36.2%. With `COC1CCCCC1NS(=O)(=O)c1ccc(Cl)cc1` (stereo not drawn) the activity change (PNC), negative = inhibition was inconclusive: -51.6%. For `COc1ccc(N2C(=O)C3CCCN3C2c2ccccc2)cc1` (stereo not drawn), the activity change (PNC), negative = inhibition was inconclusive: -42.8%. In the case of `CCOc1cc(N2CCOCC2)c(OCC)cc1NC(=O)C(NC(=O)c1ccco1)C(C)C` (stereo not drawn), the activity change (PNC), negative = inhibition is reported as inconclusive: -35.4%. In the case of `C=CCSC1=C(C#N)C2(CCCCC2)C(C#N)C(=O)N1` (stereo not drawn), the activity change (PNC), negative = inhibition is reported as inactive: 30.2%. With `COc1cccc(NC(=O)COC(=O)CCCc2c[nH]c3ccccc23)c1` the activity change (PNC), negative = inhibition was inactive: 31.1%. For `S=C(c1ccc(N2CCOCC2)cc1)N1CCOCC1`, the activity change (PNC), negative = inhibition was inactive: -3.41%. In the case of `Cc1ccc(C2CC(c3cccc(Br)c3)Nc3nnnn32)cc1` (stereo not drawn), the activity change (PNC), negative = inhibition is reported as inconclusive: -31.5%. In the case of `COc1ccc(N=C2S/C(=C\c3cc(C)n(C)c3C)C(=O)N2C)cc1`, the activity change (PNC), negative = inhibition is reported as inactive: 16.5%. With `COc1ccc(S(=O)(=O)N2CCN(C(=O)c3c(-c4ccccc4)noc3C)CC2)cc1` the activity change (PNC), negative = inhibition was inactive: -21.2%. With `O=S(=O)(Nc1ccc(Cc2ccncc2)cc1)N1CCCC1` the activity change (PNC), negative = inhibition was inconclusive: -30.2%. In the case of `COc1ccc(/C=N/NC(=O)c2[nH]c3ccc(Br)cc3c2-c2ccccc2)cc1`, the activity change (PNC), negative = inhibition is reported as inconclusive: -77.1%. With `CCOC(=O)c1nonc1NC(C)=O` the activity change (PNC), negative = inhibition was active: -100%. With `Cc1nn(CCc2nn[nH]n2)c2nc(C(F)(F)F)cc(C(F)(F)F)c12` the activity change (PNC), negative = inhibition was active: -84.4%. With `Cn1c(SCC(=O)Nc2ncc(C(F)(F)F)cc2Cl)nnc1-c1ccc(Cl)cc1` the activity change (PNC), negative = inhibition was inconclusive: -48.5%. In the case of `CCC/C(=N\NC(=O)c1ccccc1C)c1ccccc1`, the activity change (PNC), negative = inhibition is reported as inconclusive: -44.2%. With `CC(=O)c1cnc2nc(C)nn2c1C` the activity change (PNC), negative = inhibition was inactive: -22.7%.
